PubChem BioAssay AID493246 | Drosophila RNAi Screening Center | 2011
The deposit covers about 21,000 reagents; below is a random part of those with a known target gene and a result. Over the whole deposit, 429 (2%) are marked active. 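Values are raw and not normalised between plates; calls rest on per-plate z-scores that were not deposited.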 Entries without a mark were called inactive. Reagents against one gene are numbered here. Names joined by + are all predicted targets of the reagent. Not given: the amount of reagent, the time to read-out.

- Purpose: 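Genome-wide search for dsRNAs that reduce cell number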 (primary screen)
- Cells: Drosophila Kc and S2R+ cells
- Reagent: long dsRNA against Drosophila genes
- Read-out: 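Raw, unnormalised count of remaining cells in each well; per-plate z-scores of cell number underlie the calls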
- Scale: Kc cell number and S2R+ cell number: higher = more cells remaining
- Rule for the call: 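Active when the per-plate z-score of cell number is 3 or more in the direction of fewer cells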

Gene	dsRNA no.	Kc cell number, rep 1	Kc cell number, rep 2	S2R+ cell number, rep 1	S2R+ cell number, rep 2
Sbp2 (SECIS-binding protein 2)	1	1.34e6	1.37e6	1.24e6	1.15e6
CG12947	1	1.38e6	1.44e6	1.31e6	1.41e6
CG9899	1	1.59e6	1.68e6	1.43e6	1.70e6
CG14882	1	1.52e6	1.59e6	1.15e6	1.20e6
dre4	1	1.92e6	1.89e6	7.85e5	1.21e6
sgg (shaggy)	1	1.11e6	1.25e6	1.06e6	1.12e6
sgg (shaggy)	2	1.08e6	1.25e6	1.06e6	1.10e6
sgg (shaggy)	3	1.47e6	1.48e6	9.66e5	1.06e6
l(3)mbt (lethal (3) malignant brain tumor)	1	4.76e5		7.93e5	
RpL7-like + CG34164	1	1.39e6	1.35e6	8.73e5	9.24e5
RpL7-like + CG34164	2	1.60e6	1.62e6	1.25e6	1.36e6
Nup98-96 (Nucleoporin 98-96kD)	1	1.16e6	1.28e6	7.87e5	9.24e5
Nup98-96 (Nucleoporin 98-96kD)	2	1.04e6	1.08e6	7.49e5	8.86e5
AGBE (1,4-Alpha-Glucan Branching Enzyme)	1	1.22e6	1.25e6	1.06e6	1.31e6
CG18508	1	1.50e6	1.49e6	1.03e6	1.18e6
CG1304	1	1.51e6	1.55e6	1.11e6	1.19e6
CG12590	1	1.62e6	1.87e6	1.22e6	1.37e6
CG16789	1	1.48e6	1.48e6	1.24e6	1.29e6
CG9522	1	1.52e6	1.51e6	1.05e6	1.14e6
Drep4 (DNA fragmentation factor-related protein 4)	1	1.59e6	1.86e6	1.20e6	1.36e6
mAChR-A (muscarinic Acetylcholine Receptor, A-type)	1	1.75e6	1.88e6	1.15e6	1.28e6
b6	1	1.61e6	1.73e6	1.03e6	1.15e6
CG13085	1	1.45e6	1.61e6	1.33e6	3.46e5
CG17270	1	1.53e6	1.57e6	1.21e6	1.29e6
gig (gigas)	1	1.54e6	1.66e6	1.19e6	1.27e6
CG10029	1	1.61e6	1.79e6	1.48e6	1.61e6
Prat2 (Phosphoribosylamidotransferase 2)	1	1.38e6	1.49e6	1.19e6	1.13e6
Orco (Odorant receptor co-receptor)	1	1.67e6	1.88e6	1.20e6	1.35e6
CG15186	1	1.55e6	1.76e6	1.20e6	1.30e6
CNT1 + CG13742	1	1.51e6	1.53e6	1.31e6	1.35e6
CG3649	1	1.94e6	1.95e6	1.27e6	1.38e6
CG6304	1	1.24e6	1.30e6	1.31e6	1.47e6
Act5C (Actin 5C)	1	1.24e6	1.32e6	9.28e5	9.83e5

Continued (4 carried over from the part before).
Gene	dsRNA no.	Kc cell number, rep 1	Kc cell number, rep 2	S2R+ cell number, rep 1	S2R+ cell number, rep 2
CNT1 + CG13742	1	1.51e6	1.53e6	1.31e6	1.35e6
CG3649	1	1.94e6	1.95e6	1.27e6	1.38e6
CG6304	1	1.24e6	1.30e6	1.31e6	1.47e6
Act5C (Actin 5C)	1	1.24e6	1.32e6	9.28e5	9.83e5
CG15771	1	1.51e6	1.49e6	9.98e5	1.08e6
pre-mod(mdg4)-AD + mod(mdg4) + pre-mod(mdg4)-X + 3 more	1	1.48e6	1.48e6	1.01e6	1.11e6
Pp2A-29B (Protein phosphatase 2A at 29B)	1	1.54e6	1.58e6	1.23e6	1.36e6
FoxL1 (Forkhead box L1)	1	1.50e6	1.34e6	1.15e6	1.37e6
CG7523	1	1.58e6	1.60e6	1.25e6	1.30e6
CG6262	1	1.37e6	1.46e6	7.54e5	8.90e5
CG33768	1	1.65e6	1.58e6	1.38e6	1.51e6
Patj	1	1.32e6	1.35e6	1.20e6	1.14e6
Rab18	1	5.64e5		4.12e5	
amx (almondex)	1	1.56e6	1.66e6	9.50e5	1.08e6
CG7448 (retired record)	1	1.63e6	1.63e6	1.19e6	1.28e6
CG30105	1	5.98e5		8.41e5	
Vha55 (Vacuolar H[+]-ATPase 55kD subunit)	1	1.53e6	1.56e6	1.20e6	1.31e6
Ucp4B (Uncoupling protein 4B)	1	1.51e6	1.35e6	1.16e6	1.27e6
CG7706	1	1.57e6	1.74e6	1.12e6	1.23e6
sens-2 (senseless-2)	1	1.45e6	1.31e6	1.13e6	1.23e6
sens-2 (senseless-2)	2	1.45e6	1.37e6	1.08e6	1.27e6
flz (filzig)	1	1.63e6	1.64e6	1.39e6	1.43e6
CG17177	1	1.62e6	1.76e6	1.25e6	1.38e6
tws (twins)	1	1.44e6	1.36e6	1.05e6	1.16e6
tws (twins)	2	1.73e6	1.88e6	1.40e6	1.49e6
GCC185 (GRIP and coiled-coil domain containing 185 kDa)	1	1.81e6	1.95e6	1.40e6	1.58e6
RpL27 (Ribosomal protein L27)	1	1.01e6 (active)	1.07e6	5.77e5	6.79e5
Sox21b	1	1.32e6 (active)	1.30e6	6.50e5	7.10e5
Sox21b	2	1.45e6 (active)	1.44e6	8.44e5	9.67e5
schlank	1	1.63e6	1.64e6	1.01e6	1.14e6
schlank	2	1.58e6	1.52e6	1.06e6	1.11e6
